Measured data: PubChem BioAssay AID1259331 (Drosophila RNAi Screening Center, 2017)

- Test: 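Fly transmembrane-protein genes that affect zinc toxicity in cultured cells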 (primary screen)
- Cells: Drosophila S2R+ cells
- Reagents: long dsRNA against Drosophila genes
- Timing: 5 days (4 days knock-down, then 1 day zinc)
- Treatment: zinc chloride at 15 mM final level for 1 day
- Read-out: 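Luminescent ATP assay standing in for viability; Z score is the mean over three replicate plates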
- Reading the numbers: mean Z score: higher = more ATP than other wells, better survival under zinc; ATP luminescence: higher = more ATP, more viable cells
- Call rule: 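Hit when the absolute Z score is greater than 1.5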
- Meaning of the calls: active = hit, ATP up or down; inactive = not a hit
Shown is an unselected part of about 3,100 reagents. In the full data, 126 (4.1%) are marked active. 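Calls are per reagent; zinc was so toxic that few knock-downs lowered ATP further, so most hits raise ATP.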 Raw values vary from plate to plate and are shown uncorrected. Names joined by + are all predicted targets of the reagent. No sequences are given here. Not stated in the record: the amount of reagent.

predicted target	PubChem SID	mean Z score	ATP luminescence, replicate 1	ATP luminescence, replicate 2	outcome
nemy	SID104185149	1.14	55608	62535	inactive
nemy	SID104205076	-0.6	59037	45937	inactive
CG1246	SID104188067	-0.0464	75844	70374	inactive
CG1246	SID104217448	-0.502	47189	54905	inactive
Fad2	SID104190957	1.88	1.16e5	85862	active
Fad2	SID104202804	-0.705	43813	48271	inactive
CG8008	SID104186845	0.0785	31759	33010	inactive
CG8008	SID104217047	-0.108	45508	55419	inactive
Ir21a + asRNA:CR43609	SID104180320	-0.24	42028	45268	inactive
CG10171	SID104189503	-0.341	27474	29959	inactive
CG10171	SID104204823	-0.331	48577	49023	inactive
l(2)03659	SID104187061	-0.54	83237	61901	inactive
l(2)03659	SID104187430	0.0348	41119	44891	inactive
Gr77a	SID104191238	-0.551	52264	61660	inactive
Gr77a	SID104205352	-0.163	58454	50241	inactive
MsR1	SID104188407	-0.364	62776	65931	inactive
MsR1	SID104205011	0.251	59740	60855	inactive
PGRP-LF + UGP	SID104190210	-0.0523	73769	62621	inactive
CG13743	SID104202136	-0.546	42262	40262	inactive
Osi2	SID104191966	-0.182	62638	63101	inactive
Osi2	SID104206918	-0.0865	51818	68451	inactive
CR7448	SID104191620	-0.286	28142	33250	inactive
CR7448	SID104201939	1.06	61558	75038	inactive
CG31121	SID104195153	0.178	54236	47411	inactive
CG31121	SID104195155	-0.0898	39353	61591	inactive
CG15279	SID104181727	0.0331	53910	59637	inactive
CG15279	SID104205891	-0.661	53533	52549	inactive
subdued	SID104194929	-0.504	39988	40622	inactive
subdued	SID104217080	-0.344	49137	40478	inactive
Inx3	SID104194649	0.55	41891	49898	inactive
Inx3	SID104203003	-0.256	52298	51732	inactive
CG14621	SID104200427	-0.266	37639	41119	inactive
CG14621	SID104205638	0.213	62484	59071	inactive
Mrp5	SID104195389	-0.906	29222	46657	inactive
Mrp5	SID104195390	-0.237	44445	39970	inactive
Mrp5	SID104204213	-0.569	50138	55145	inactive
Lerp	SID104194543	0.706	80647	74798	inactive
Lerp	SID104195822	0.125	67303	68957	inactive
Lerp	SID104195823	0.859	79275	81348	inactive
Pss	SID104191549	-0.126	72834	57802	inactive
Pss	SID104217011	-0.318	43162	48887	inactive
Alk	SID104202699	0.198	52144	48732	inactive
Alk	SID104214548	-0.126	45691	46211	inactive
Alk	SID104214549	-0.00395	49195	46897	inactive
alka	SID104185928	-0.237	84095	66874	inactive
bond	SID104195927	-0.0245	45535	45812	inactive
bond	SID104202864	0.336	57902	61952	inactive
CG8908	SID104187089	-0.02	69584	73066	inactive
CG8908	SID104217177	0.289	63136	67637	inactive
Pdfr	SID104198406	1.52	86531	96052	active
Pdfr	SID104217364	-0.479	44737	54493	inactive
Eaat1	SID104183113	0.406	57014	40622	inactive
Eaat1	SID104217182	0.0222	59157	61850	inactive

The list goes on, starting with the last 12 of the part before.
predicted target	PubChem SID	mean Z score	ATP luminescence, replicate 1	ATP luminescence, replicate 2	outcome
Alk	SID104202699	0.198	52144	48732	inactive
Alk	SID104214548	-0.126	45691	46211	inactive
Alk	SID104214549	-0.00395	49195	46897	inactive
alka	SID104185928	-0.237	84095	66874	inactive
bond	SID104195927	-0.0245	45535	45812	inactive
bond	SID104202864	0.336	57902	61952	inactive
CG8908	SID104187089	-0.02	69584	73066	inactive
CG8908	SID104217177	0.289	63136	67637	inactive
Pdfr	SID104198406	1.52	86531	96052	active
Pdfr	SID104217364	-0.479	44737	54493	inactive
Eaat1	SID104183113	0.406	57014	40622	inactive
Eaat1	SID104217182	0.0222	59157	61850	inactive
sut1	SID104187492	-0.534	27165	28296	inactive
Sdc	SID104184446	0.184	54013	35856	inactive
ppk6	SID104185854	0.0857	66372	74283	inactive
ppk6	SID104217456	-0.43	50121	56293	inactive
Tapdelta	SID104185738	-0.359	30027	27970	inactive
Tapdelta	SID104217106	4.39	1.11e5	1.08e5	active
Loxl2	SID104184261	-0.28	28108	29153	inactive
stnA + stnB	SID104200761	0.033	54407	42954	inactive
stnA + stnB	SID104200904	0.41	36426	60306	inactive
stnA + stnB	SID104200905	-0.363	36617	45525	inactive
nrv1	SID104183174	0.505	62484	64250	inactive
140up	SID104192426	-0.918	34971	36405	inactive
140up	SID104207255	-0.133	60135	58540	inactive
Icmt	SID104189626	-0.323	67252	56481	inactive
Icmt	SID104217459	-0.557	31982	61318	inactive
CG34435	SID104197878	-0.951	48886	51718	inactive
CG34435	SID104217045	0.162	55459	51561	inactive
robo2	SID104180169	-0.389	42011	39988	inactive
robo2	SID104180478	-0.479	96618	64848	inactive
Gr5a	SID104197877	-0.459	58111	58780	inactive
LRP1	SID104187030	-0.373	74636	67845	inactive
Ac76E	SID104189434	-0.247	61695	62227	inactive
Ac76E	SID104189454	-0.314	29599	30279	inactive
CG14855	SID104194771	0.868	44360	61318	inactive
CG14855	SID104217102	-0.259	48947	43828	inactive
Alg10	SID104190684	0.2	81779	59706	inactive
Alg10	SID104217026	-0.0893	49137	50618	inactive
anne	SID104196895	4.28	1.58e5	1.27e5	active
anne	SID104208496	2.86	83563	80942	active
hoe2	SID104180251	-0.674	37073	37947	inactive
hoe2	SID104217046	-0.266	48732	44702	inactive
CG33234	SID104187786	-0.0203	42782	44046	inactive
CG33234	SID104217332	-0.11	58866	58351	inactive
CG9483	SID104183018	-0.421	53173	47206	inactive
CG9483	SID104208473	-0.574	41084	38016	inactive
